Tested on: 15 kb plasmid
Experiment: Assembly reaction of a 15 kb plasmid with cationic detergent, colonies after electroporation
Parameters: species or system E. coli

| Structure (SMILES) | # Colonies (CTAB 30 mM) | # Colonies (CTAB 100 mM) | # Colonies (CTAB 300 mM) | # Colonies (TMAC 15 mM) | # Colonies (TMAC 30 mM) | # Colonies (TMAC 60 mM) | # Colonies (TMAC 90 mM) |
| --- | --- | --- | --- | --- | --- | --- | --- |
| CCCCCCCCCCCCCCCC[N+](C)(C)C.[Br-] [CTAB, cetyltrimethylammonium bromide] | 34 | 14 | 0 | – | – | – | – |
| C[N+](C)(C)C.[Cl-] [TMAC, tetramethylammonium chloride] | – | – | – | 88 | 301 | 15 | 3 |

Reference: patent US7868138B2, “Methods for generating polynucleotides having desired characteristics by iterative selection and recombination” (priority 1994, dated 2011)
